Experimental data as given in article PMC8537709.
The exact form of at least one protein or probe is not confirmed.

Chains of the proteins cited; added tags and fusions are not shown. A line that says so, or that is headed by a name, gives the form on record, which may keep a tag or linker.
Carcinoembryonic antigen (CEA) (human), one chain, as listed by the source: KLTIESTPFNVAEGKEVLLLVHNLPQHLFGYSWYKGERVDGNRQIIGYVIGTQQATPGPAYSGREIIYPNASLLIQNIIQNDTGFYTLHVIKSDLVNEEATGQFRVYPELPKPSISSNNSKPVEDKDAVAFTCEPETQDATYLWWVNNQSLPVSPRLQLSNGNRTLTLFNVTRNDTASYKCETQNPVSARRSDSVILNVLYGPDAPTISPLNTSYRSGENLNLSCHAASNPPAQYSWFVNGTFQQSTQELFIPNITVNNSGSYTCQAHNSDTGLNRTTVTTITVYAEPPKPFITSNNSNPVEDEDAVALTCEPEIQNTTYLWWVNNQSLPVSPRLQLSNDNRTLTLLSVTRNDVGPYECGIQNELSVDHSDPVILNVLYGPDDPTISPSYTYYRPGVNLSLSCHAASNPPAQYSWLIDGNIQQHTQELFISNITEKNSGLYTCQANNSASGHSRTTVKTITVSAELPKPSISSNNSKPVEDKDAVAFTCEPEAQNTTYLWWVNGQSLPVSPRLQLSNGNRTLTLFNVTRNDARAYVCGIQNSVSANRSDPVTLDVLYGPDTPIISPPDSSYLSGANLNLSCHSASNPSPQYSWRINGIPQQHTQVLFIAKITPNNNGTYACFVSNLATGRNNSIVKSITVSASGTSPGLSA

System: Carcinoembryonic antigen (CEA) (human)
Experiment: target-induced release of 4-nitrophenol (UV-vis, 318 nm) from aptamer/cDNA-gated magnetic mesoporous silica
Conditions: CEA 1.0 ng/mL, aptamer displaced from immobilized cDNA S2, no Kd; PBS 10 mM, pH 7.4; assay temperature not stated (aptamer loading and gating test at room temperature); commercial protein; protein details: GST tag N-terminus; single-stranded …

“ATACCAGCTTATTCAATT [CEA-specific aptamer]”: binds.
